Among the data in publication doi:10.1101/2021.12.08.471779 are binding values, retold here.

Sequences of proteins named here, by UniProt entry; tags and fusion partners are left off. A change or cut given only in a name is not applied to a line headed by its entry.
UniProt P02929, whole entry, looked up, stated change not applied: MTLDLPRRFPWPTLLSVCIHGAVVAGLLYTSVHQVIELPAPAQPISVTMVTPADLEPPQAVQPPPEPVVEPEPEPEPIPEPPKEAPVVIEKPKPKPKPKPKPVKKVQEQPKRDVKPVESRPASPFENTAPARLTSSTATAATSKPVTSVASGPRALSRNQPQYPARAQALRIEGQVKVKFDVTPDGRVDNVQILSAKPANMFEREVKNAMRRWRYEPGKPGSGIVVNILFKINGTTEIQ

What all share (assay): cross-linking
Experiment [1] deals with T1, FepA T722C (Escherichia coli K-12) (UniProt P05825).
T1 sequence: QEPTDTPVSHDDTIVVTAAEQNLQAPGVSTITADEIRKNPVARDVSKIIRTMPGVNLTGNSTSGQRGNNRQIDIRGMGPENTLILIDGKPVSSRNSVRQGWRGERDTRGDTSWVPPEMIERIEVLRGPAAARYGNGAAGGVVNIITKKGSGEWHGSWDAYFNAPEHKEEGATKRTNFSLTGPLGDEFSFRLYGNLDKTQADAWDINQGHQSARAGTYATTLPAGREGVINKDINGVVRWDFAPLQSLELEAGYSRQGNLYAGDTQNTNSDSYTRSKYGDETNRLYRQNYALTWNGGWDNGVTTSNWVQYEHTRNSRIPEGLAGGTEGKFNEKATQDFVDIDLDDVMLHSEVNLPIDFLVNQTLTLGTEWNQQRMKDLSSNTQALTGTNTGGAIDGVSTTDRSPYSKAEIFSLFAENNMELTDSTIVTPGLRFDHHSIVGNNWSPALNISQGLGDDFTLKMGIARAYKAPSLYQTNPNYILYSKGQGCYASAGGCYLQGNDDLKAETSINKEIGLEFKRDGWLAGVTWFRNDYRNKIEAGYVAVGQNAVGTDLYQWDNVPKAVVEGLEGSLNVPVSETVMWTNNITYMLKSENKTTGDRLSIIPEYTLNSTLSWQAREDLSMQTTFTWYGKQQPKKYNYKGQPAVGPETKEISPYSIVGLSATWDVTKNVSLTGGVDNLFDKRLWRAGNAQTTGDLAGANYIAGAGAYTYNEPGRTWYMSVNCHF

Experiment [2] has as its target T2, FepA D356C (Escherichia coli K-12) (UniProt P05825).
T2 sequence: T1 sequence with D356C, C722T

In experiment [3] the target is T3, FepA G54C with the TonB box (residues 12-17) deleted (Escherichia coli K-12) (UniProt P05825).
T3 sequence: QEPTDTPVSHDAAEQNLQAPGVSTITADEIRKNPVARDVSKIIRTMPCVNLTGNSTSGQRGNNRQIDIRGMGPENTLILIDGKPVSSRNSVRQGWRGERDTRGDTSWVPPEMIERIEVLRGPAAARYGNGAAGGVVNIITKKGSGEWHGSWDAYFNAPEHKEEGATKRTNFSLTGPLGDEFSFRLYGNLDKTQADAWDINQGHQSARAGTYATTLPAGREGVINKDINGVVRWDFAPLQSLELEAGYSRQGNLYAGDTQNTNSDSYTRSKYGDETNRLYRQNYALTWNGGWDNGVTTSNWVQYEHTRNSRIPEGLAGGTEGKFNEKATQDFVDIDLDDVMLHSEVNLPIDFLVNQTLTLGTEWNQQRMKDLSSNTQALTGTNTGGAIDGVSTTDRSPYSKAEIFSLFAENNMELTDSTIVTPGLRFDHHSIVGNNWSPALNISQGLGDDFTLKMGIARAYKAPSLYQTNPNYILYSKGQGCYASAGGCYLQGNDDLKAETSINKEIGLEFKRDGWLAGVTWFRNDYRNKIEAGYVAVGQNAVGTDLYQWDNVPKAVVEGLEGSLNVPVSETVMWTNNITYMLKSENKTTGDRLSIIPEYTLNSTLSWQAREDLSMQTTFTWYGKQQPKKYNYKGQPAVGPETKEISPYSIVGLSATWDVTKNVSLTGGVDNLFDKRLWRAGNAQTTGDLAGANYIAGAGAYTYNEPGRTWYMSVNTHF

Residue numbers refer to the chain shown, from its start. Results are given in words; binding and its absence hold for the method and conditions named. Binding seen in cells or lysates may run through a third protein.

Take “TonB C18G A209C (from UniProt P02929 1-239)”: the binding result in experiment [1] and in experiment [2] was “no binding” in each case.
With “TonB C18G Q160C (from UniProt P02929 1-239)”, the binding entry in experiment [3] and in experiment [2] was “no binding” throughout.
With “TonB C18G V206C (from UniProt P02929 1-239)”, the binding result in experiment [1] and in experiment [2] was “no binding” each time.
